Laboratory results reported in patent US20230086303A1 (priority 2016, published 2023).

Key:
[1] = Projected steady-state pharmacokinetics, once-weekly transdermal vs 10 mg oral donepezil; conditions: at steady state
[2] = in vivo; cited from earlier work

COc1cc2c(cc1OC)C(=O)C(CC1CCN(Cc3ccccc3)CC1)C2 (centres unmarked) [donepezil]
Geometric mean Cmin [1]: 30.8 ng/mL
half-life [2]: greater than 48 hours
